For at least one entry, the source does not settle the construct or the ends of the probe.
Target: ArcA-6His phosphorylated (ArcA-P) (UniProt P0A9Q1)
Assay: EMSA
Conditions: 10 mM Mg2+, 100 mM Tris pH 7.4, 10 mM MgCl2, 100 mM KCl, 5% glycerol, 2 mM DTT, recombinant protein, protein details: 6xHis (pET28a-arcA6His), label: none (SYBR Gold stain), probe letters rebuilt from the primers and the genome

Sequences of proteins named here, by UniProt entry; tags and fusion partners are left off. A change or cut given only in a name is not applied to a line headed by its entry.
UniProt P0A9Q1: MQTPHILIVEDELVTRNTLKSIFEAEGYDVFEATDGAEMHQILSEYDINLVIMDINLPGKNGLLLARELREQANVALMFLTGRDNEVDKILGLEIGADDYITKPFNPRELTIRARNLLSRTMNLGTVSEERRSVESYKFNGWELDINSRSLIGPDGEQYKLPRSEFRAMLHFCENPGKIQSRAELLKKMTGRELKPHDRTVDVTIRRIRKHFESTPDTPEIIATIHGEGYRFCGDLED

Row | Sequence | binding result (0-600 ng with 50 ng DNA, dose-dependent shift, BSA ([…]) | binding result (strong shift similar to clbB, BSA (printed 400 µg/mg), 50 ng DNA, 30 min 37°C, 6% TBE gel, 0.5x TBE)
1 | TGGCAGTATTTAAGAGGAATTTACGATACAACGGTTTTTATGTAAATGGGAATTACGCATTATTTTCTATGTGGTGGCTGTATCAATTCATACCCGCTACATCATGTATGTACTGCATGACTTACATGTTTTTGCTTACAGACAGAATCTAATTCATTGAAGAAAAACATGTAATCAGAATATAAGGATTTTTTGGGGGTATTCCTGTAAGTGATAAAATGCAATATGATTATATGAATACGCAATAAAAAACTATACTTGCGGATAGGTGTGCCATTTAGAATAATCATGTTAAATAATCTATAAATCCGATAATAAGGTGATGGTTATGGATA (double strand) [clbB promoter region] | binds | 
2 | TGCGACTTTCATCCTAAACTCCTTATTATATTGATAAACTAAGATATGTTGCTCCGCTGCCGCGACCTTAATCCACAAAATTGCCGTTTACAATGACCACATCTCAAGAATGTGTAGTCACGCAAGTTTAGCGTTTATGCATTTAATTGCCGTAATCAGGAACCTAACTTACGTAATTAACAGTCGCTTATGCATTAGCGCAACATTCCAACAGGTGGTGACAATATACCC (double strand) [mdh promoter region] |  | binds

— PMC10269391
